What was measured:
[1] = Polarization by DNP (15 mM OXO63 radical, irradiating at 90940 MHz); details: 5 M solution in water
[2] = Spectroscopic (13C-NMR) detection of H2O2 with hyperpolarized probe

In the case of O=C(c1ccccc1)[13C](=O)O [^13C-BFA, ^13C-benzoylformic acid], the “buildup time constant of DNP polarization” value ([1]; 15 mM OXO63 radical) is reported as 830 s, the enhancement factor ([1]; after 45 minutes, 15 mM OXO63) is reported as 5450 fold and the polarization ([1]; after 45 minutes, 15 mM OXO63) is reported as about 5%. For the same molecule, the “time of maximum integrated ratio of benzoic acid (C1) peak to unlabeled BFA (C1) peak” value ([2]; 5 mM probe, 100 mM phosphate buffer pH 7.8) was 21 s and the “detection of hydrogen peroxide” value ([2]; hyperpolarized, 10-1000 μM H2O2, pH 7.8, in vitro) was “can detect micromolar concentrations of hydrogen peroxide in vitro”.

— patent US10245330B2, “Compositions and methods for imaging” (The Regents of the University of California, priority 2010, dated 2019)
